Laboratory results as given in paper PMC7862700.
The entries are a selection whose mix differs from that of the whole data set. At the low end of the ranking the order means little.

What follows are sequences tested against SPI1 (UniProt P17947) (assay: DAPPL (digital affinity profiling via proximity ligation, sequencing)). Conditions: 10 mM Tris-HCl pH 7.5, 50 mM NaCl, 1 mM DTT, 4% glycerol, room temperature, 30 min; GST-TFs on glutathione beads, 16-mer random dsDNA library, 0.1% …; high values mean tight binding; double strand, one strand shown; scale: fold enrichment (6-mer frequency, TF over GST control).

Sequence | binding signal
CGTGCT | 0.826
GGGTAG | 0.642
GTGAGT | 0.137
CGGTGA | 0.439
CGCGTG | 0.697
GTGGCG | 0.861
GTTGTG | 0.861
AGAGAG | 0.485
ACCAGC | 0.858
GAGCAT | 0.687
GCGTCG | 0.83
CGGACA | 0.735
GCAGGA | 0.751
AGGGTG | 0.691
TAGCCG | 0.807
GGGCTG | 0.976
GAGCAA | 0.686
AGGCCG | 0.454
GCAACG | 0.881
CGTGGG | 0.362

An excerpt of these results, in CSV form.
Sequence,binding signal
AGAGAG,0.485
GCAACG,0.881

(next part)

Sequence | binding signal
GTGAGA | 0.343
GGCGAT | 0.842
GGTGAT | 0.754
TGGACG | 0.823
GCGGAT | 0.858
GGCCAA | 0.833
GCTGGG | 0.856
GTGGAG | 0.452
TGAGTT | 0.414
GGACCC | 0.776
AGTCAT | 0.654
GACGGG | 0.434
CCTGTC | 0.876
CTAGAG | 0.85
TGGAGA | 0.412
GAGAGA | 0.423
TCGGTA | 0.564
GGCGGG | 0.336
AGAGTG | 0.553
GGCGTC | 0.793
